PubChem BioAssay AID602196, INSERM, 2012
This is one part, drawn at random, of about 23,000 reagents. In the full data, 455 (2%) were called active. 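Active includes both protection and sensitisation; some change values fall well beyond the stated -50 to +50 range.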 Unmarked entries are inactive. Not all columns of the deposit are shown. The record does not give: the amount of reagent.

Purpose: 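Knock-downs that protect lung cancer cells from cisplatin or sensitise them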
Cell system: human A549 lung cancer cells
Reagent: siRNA pair against human genes
Duration: 48 h transfection before cisplatin; time from cisplatin to read-out not stated
Challenge: cisplatin at a dose killing half of control-siRNA cells; exact dose and duration not given
Measurement: 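Shift in cisplatin death relative to control siRNA, from -50 (all cells die) to +50 (no cells die); siRNAs harmful on their own scored 0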
Scale: two-siRNA summed score (-2 to +2): higher = both siRNAs protect from cisplatin killing; -2 means both sensitise; mean protection from cisplatin (shift in death): higher = protection from cisplatin killing
Rule for the call: 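Each siRNA scores 0 if harmful alone by LDH or WST-1, otherwise +1 if it reduces and -1 if it increases cisplatin killing; a gene is active when both siRNAs agree (sum +2 or -2)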
Meaning of the calls: active = both siRNAs shift cisplatin killing the same way; inactive = no consistent shift, or siRNA harmful alone

Depletion of RTP2 resulted in: two-siRNA summed score (-2 to +2) = -1; mean protection from cisplatin (shift in death) (%) = -15.6.
After knock-down of TIMM10, the screen gave two-siRNA summed score (-2 to +2) = 0; mean protection from cisplatin (shift in death) (%) = -0.4.
For LOC441338, the values are two-siRNA summed score (-2 to +2) = -1; mean protection from cisplatin (shift in death) (%) = -2.
Knock-down of CALML3 resulted in: two-siRNA summed score (-2 to +2) = 0; mean protection from cisplatin (shift in death) (%) = 3.4.
For NXNL1 the deposit lists two-siRNA summed score (-2 to +2) = -1; mean protection from cisplatin (shift in death) (%) = -12.1.
Depletion of SECTM1 came out at: two-siRNA summed score (-2 to +2) = 0; mean protection from cisplatin (shift in death) (%) = -1.6.
After knock-down of LOC388170 the results were two-siRNA summed score (-2 to +2) = 0; mean protection from cisplatin (shift in death) (%) = 2.2.
LRRC32 scored two-siRNA summed score (-2 to +2) = 0; mean protection from cisplatin (shift in death) (%) = -5.
Against SAYSD1, the entry reads two-siRNA summed score (-2 to +2) = 1; mean protection from cisplatin (shift in death) (%) = 5.5.
With knock-down of SRP19 the results were two-siRNA summed score (-2 to +2) = -1; mean protection from cisplatin (shift in death) (%) = 1.8.
With knock-down of OCM2, the record shows two-siRNA summed score (-2 to +2) = 0; mean protection from cisplatin (shift in death) (%) = -2.4.
PROSER1 showed two-siRNA summed score (-2 to +2) = 0; mean protection from cisplatin (shift in death) (%) = 2.6.

A stretch from the list above, as a working copy:
NXNL1 — two-siRNA summed score (-2 to +2) = -1; mean protection from cisplatin (shift in death) (%) = -12.1
SECTM1 — two-siRNA summed score (-2 to +2) = 0; mean protection from cisplatin (shift in death) (%) = -1.6
